Experimental data: PubChem BioAssay AID504774 (Drosophila RNAi Screening Center, 2011)

Screen: 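Genes required for cells to withstand methyl methanesulphonate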 (primary screen)
Cells: Drosophila Kc167 cells
Knock-down reagent: long dsRNA against Drosophila genes, about 0.25 µg dsRNA per well
Timing: about 6 days: 3 days knock-down, then 3 days with or without MMS
Conditions: methyl methanesulphonate 0.004% (w/v) for 3 days after knock-down
Measurement: 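Viability in wells given MMS, read as ATP luminescence, normalised by quantiles plate by plate and averaged across replicates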
Direction: mean viability with MMS and viability with MMS: higher = more surviving cells after MMS
The screen tested about 23,000 reagents; below is an unselected part of those that have a named target and a result. 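Values are quantile-normalised luminescence on an arbitrary scale; higher means more cells surviving MMS.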 Names joined by + are all predicted targets of the reagent. No sequences are given here.

| target gene | amplicon | mean viability with MMS | viability with MMS, replicate 1 | viability with MMS, replicate 2 |
| --- | --- | --- | --- | --- |
| CG8326 | DRSC20103 | 3.49e6 | 4.03e6 | 3.87e6 |
| kin17 | DRSC11890 | 3.36e6 | 3.74e6 | 3.81e6 |
| CG6900 (retired record) | DRSC20018 | 3.59e6 | 4.09e6 | 4.03e6 |
| S-Lap3 | DRSC10956 | 3.53e6 | 3.91e6 | 4.09e6 |
| RpL12 | DRSC04344 | 2.81e6 | 3.42e6 | 3.42e6 |
| CG10470 | DRSC02061 | 3.51e6 | 3.99e6 | 3.97e6 |
| CG44837 | DRSC10133 | 3.32e6 | 3.66e6 | 3.80e6 |
| CG44837 | DRSC10558 | 3.56e6 | 4.00e6 | 4.06e6 |
| ida | DRSC08163 | 3.48e6 | 3.93e6 | 3.97e6 |
| dsx | DRSC12649 | 3.70e6 | 4.32e6 | 3.98e6 |
| dsx | DRSC16934 | 3.94e6 | 4.52e6 | 4.36e6 |
| dsx | DRSC21495 | 3.80e6 | 4.26e6 | 4.30e6 |
| CG7011 | DRSC09347 | 3.51e6 | 3.95e6 | 4.02e6 |
| l(3)L1231 | DRSC16323 | 3.58e6 | 4.21e6 | 3.94e6 |
| Mitofilin | DRSC16742 | 3.46e6 | 3.89e6 | 3.96e6 |
| CG5096 | DRSC02813 | 3.39e6 | 3.74e6 | 3.90e6 |
| CG34302 | DRSC12751 | 3.48e6 | 4.02e6 | 3.90e6 |
| Lint-O | DRSC18468 | 3.41e6 | 3.91e6 | 3.84e6 |
| CG32333 | DRSC08627 | 3.67e6 | 4.16e6 | 4.16e6 |
| CG32333 | DRSC08629 | 3.43e6 | 3.94e6 | 3.86e6 |
| Nlg3 | DRSC12477 | 3.65e6 | 3.90e6 | 4.33e6 |
| Nlg3 | DRSC12524 | 3.55e6 | 3.99e6 | 4.07e6 |
| Nlg3 | DRSC12540 | 3.46e6 | 3.92e6 | 3.95e6 |
| Nlg3 | DRSC12574 | 3.35e6 | 3.85e6 | 3.79e6 |
| CG8939 | DRSC20127 | 3.39e6 | 3.82e6 | 3.78e6 |
| Rpt3R | DRSC16501 | 3.35e6 | 3.85e6 | 3.81e6 |
| Galphai | DRSC11168 | 3.50e6 | 3.97e6 | 3.96e6 |
| Cyp6a21 | DRSC07381 | 3.67e6 | 4.06e6 | 4.26e6 |
| Cdep | DRSC12028 | 3.52e6 | 3.92e6 | 4.07e6 |
| Cdep | DRSC12220 | 3.49e6 | 3.93e6 | 3.96e6 |
| Cdep | DRSC12291 | 3.28e6 | 3.68e6 | 3.72e6 |
| Adh + Adhr | DRSC01862 | 3.50e6 | 3.83e6 | 4.09e6 |
| Adh + Adhr | DRSC01863 | 3.60e6 | 4.21e6 | 3.94e6 |
| mRpS14 | DRSC19444 | 3.56e6 | 4.04e6 | 4.03e6 |
| CG8435 | DRSC07179 | 3.25e6 | 3.72e6 | 3.77e6 |
| Or92a | DRSC16771 | 3.54e6 | 4.04e6 | 3.99e6 |
| CG11841 | DRSC14399 | 3.56e6 | 4.06e6 | 4.02e6 |
| CG15446 | DRSC20518 | 3.51e6 | 3.99e6 | 3.98e6 |
| CG7295 | DRSC00699 | 3.46e6 | 3.90e6 | 3.92e6 |
| CG32066 | DRSC10652 | 3.78e6 | 4.35e6 | 4.24e6 |
| CG32066 | DRSC10653 | 3.73e6 | 4.23e6 | 4.15e6 |
| CG15236 | DRSC04970 | 3.72e6 | 4.26e6 | 4.03e6 |
| CG15236 | DRSC21396 | 3.20e6 | 3.75e6 | 3.74e6 |
| CG15236 | DRSC23025 | 3.72e6 | 4.18e6 | 4.26e6 |
| CG42685 | DRSC01971 | 3.65e6 | 4.06e6 | 3.95e6 |
| stum | DRSC04268 | 3.61e6 | 4.15e6 | 4.04e6 |
| stum | DRSC04270 | 3.64e6 | 4.13e6 | 4.11e6 |

Single entries from the list.
S-Lap3 [DRSC10956], viability with MMS, replicate 1: 3.91e6
Value of CG7295 [DRSC00699] under “viability with MMS, replicate 2”: 3.92e6
For “viability with MMS, replicate 2”, Cdep [DRSC12291] shows 3.72e6
Result for CG8326 [DRSC20103] under “viability with MMS, replicate 1”: 4.03e6
l(3)L1231 [DRSC16323], viability with MMS, replicate 1 → 4.21e6
